Assay [1] addresses T1, His10-tagged C. elegans NFKI-1-V5 (recombinant) (C. elegans) (UniProt G5EDE9).
T1 sequence: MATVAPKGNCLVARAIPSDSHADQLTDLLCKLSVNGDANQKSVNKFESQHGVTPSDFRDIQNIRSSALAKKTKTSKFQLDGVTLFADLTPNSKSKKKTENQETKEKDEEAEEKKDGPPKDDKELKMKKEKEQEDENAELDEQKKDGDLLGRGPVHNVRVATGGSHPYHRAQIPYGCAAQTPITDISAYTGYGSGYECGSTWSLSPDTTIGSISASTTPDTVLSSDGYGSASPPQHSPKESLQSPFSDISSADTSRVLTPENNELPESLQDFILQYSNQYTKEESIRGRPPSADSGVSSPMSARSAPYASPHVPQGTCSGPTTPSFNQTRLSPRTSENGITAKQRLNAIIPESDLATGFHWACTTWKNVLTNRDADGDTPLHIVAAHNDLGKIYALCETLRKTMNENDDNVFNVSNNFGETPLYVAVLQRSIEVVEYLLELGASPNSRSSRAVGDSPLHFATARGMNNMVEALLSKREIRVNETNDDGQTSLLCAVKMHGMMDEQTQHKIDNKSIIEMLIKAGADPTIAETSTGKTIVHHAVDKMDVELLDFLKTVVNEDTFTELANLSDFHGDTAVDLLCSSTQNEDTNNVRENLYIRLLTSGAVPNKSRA
Nature of the assay: co-IP; pairwise co-immunoprecipitation of His10-tagged, epitope-tagged C. elegans proteins recombinantly expressed in E. coli; both purified.

Amino acid sequences for entries named in this document (tags omitted). A change or cut given only in a name is not applied to a line headed by its entry.
UniProt G5EG87: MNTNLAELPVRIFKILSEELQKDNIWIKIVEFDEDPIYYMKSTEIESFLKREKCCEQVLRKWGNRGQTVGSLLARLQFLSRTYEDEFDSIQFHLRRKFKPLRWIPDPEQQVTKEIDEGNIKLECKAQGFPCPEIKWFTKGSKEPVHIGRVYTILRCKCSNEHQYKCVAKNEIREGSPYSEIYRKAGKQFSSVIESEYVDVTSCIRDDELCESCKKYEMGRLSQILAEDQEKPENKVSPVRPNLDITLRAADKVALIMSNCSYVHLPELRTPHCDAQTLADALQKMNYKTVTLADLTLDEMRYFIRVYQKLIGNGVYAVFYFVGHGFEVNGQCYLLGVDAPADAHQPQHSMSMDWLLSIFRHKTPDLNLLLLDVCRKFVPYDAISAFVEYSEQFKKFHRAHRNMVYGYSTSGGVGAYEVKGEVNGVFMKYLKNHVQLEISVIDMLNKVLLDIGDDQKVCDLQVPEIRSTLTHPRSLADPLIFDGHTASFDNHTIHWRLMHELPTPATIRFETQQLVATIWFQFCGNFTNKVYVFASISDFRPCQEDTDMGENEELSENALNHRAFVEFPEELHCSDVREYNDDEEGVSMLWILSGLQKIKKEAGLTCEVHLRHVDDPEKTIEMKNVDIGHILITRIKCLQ

Assay [2] deals with T2, NFKI-1 N-terminus (1-374), two-hybrid bait (C. elegans) (UniProt G5EDE9).
T2 sequence: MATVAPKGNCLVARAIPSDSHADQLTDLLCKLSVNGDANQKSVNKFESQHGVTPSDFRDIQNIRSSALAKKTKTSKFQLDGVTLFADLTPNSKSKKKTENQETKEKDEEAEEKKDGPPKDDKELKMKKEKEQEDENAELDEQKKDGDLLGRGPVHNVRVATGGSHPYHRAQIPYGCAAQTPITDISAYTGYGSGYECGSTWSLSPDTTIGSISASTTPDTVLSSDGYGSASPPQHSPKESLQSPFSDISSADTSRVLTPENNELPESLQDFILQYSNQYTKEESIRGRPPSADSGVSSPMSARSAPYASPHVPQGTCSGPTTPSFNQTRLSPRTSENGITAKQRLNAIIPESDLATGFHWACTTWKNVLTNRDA
The assay is described as follows: two-hybrid; yeast AH109; prey in pGADT7, bait in pGBKT7; nutritional selection (ADE2), 10-fold serial dilutions; done by Panbionet.

Assay [3] has as its target MALT-1-HA (endogenous MALT-1 tagged with HA) (C. elegans). Nature of the assay: co-IP; multiple knock-in C. elegans strain (npr-1 animals); lysate in lysis buffer B; MALT-1-HA precipitated with anti-HA agarose, 30 min at 4 °C; half of the lysate with IgG-agarose as control; Western blot. On the technique in general: A western blot detects proteins with antibodies after separation by electrophoresis.

Assay [4] concerns the target His10-tagged C. elegans MALT-1-HA (recombinant) (C. elegans) (UniProt G5EG87). Nature of the assay: co-IP; pairwise co-immunoprecipitation of His10-tagged, epitope-tagged C. elegans proteins recombinantly expressed in E. coli; both purified.

No constants are given. Whether binding was seen depends on the method and setting. Binding calls can cover weak binding; strength is not graded here. For some of these results: Binding seen in cells or lysates may run through a third protein. For some of these results: Tags and fused reporters may be left off the sequences shown.

As to “His10-tagged C. elegans MALT-1-HA (recombinant) (from UniProt G5EG87)”, in assay [1], the binding entry is given as “binds”.

In the case of “MALT-1 Death Domain (1-81), two-hybrid prey (C. elegans) (domain or fragment)”, the binding result in assay [2] was “binds”.

B1: PIK-1-Myc (endogenous PIK-1 tagged with a Myc epitope) (protein, UniProt G5ECP4 1-485)
chain: MDDSLGVSEVVMIPFMKREVLQQICAILDTDNTWETIAPYMPGIELRDVEGCKRYSSYNQSPSELLLRIWSSKGYSTTHLYQLFAKTKLIRLMRMMRSQVHEKYHYLENKVTNSTSRVSKQMVQPPGSQSASRLKKTEIKESSPSPAAAAASQLSRSNTDDTLRVAIEGTLPVTYCELLEATNGFAVSNVIGKGGYGTVYKGELKGTGGIVAVKRLHSGNDTSQNGSRERLRQSLTELRTLARFRHDNILPIYAYSLEGSEPCLVYQFMSNGSLEDRLLCRKGSVPLTWIQRKEISIGAGRGLGFLHSFGKTPIIHGDIKTANILLDKHMEPKIGDFGLCRDGHVEAEAMEKHPLIASHIKGTLAYLAPEFITSKILTTKLDVYSFGIVLLEIASGQRAYSDSRETRGLVEYCQVNKELAAHRKIPVREIFIDRRAPPLVGDEEKSFLDALIEVGLAGANNDRKVRPTMSQIVEYLCKNSIPPVV
As to B1, in assay [3], the binding entry was “binds”.

B2: ACTL-1-FLAG (endogenous ACTL-1 tagged with a FLAG epitope) (protein, UniProt Q18008 1-360)
chain: MTKMKMDVTIELDLDGDDWEEVDVLSDKCVEDILEDVHIDDPILVSDVRITLPANIRIKNFKKEIRDLILANLDVPTTVSAGSWQIVSSFLRGIEYSEIGGRERNSKLSWKPFEDMHAQILVNALAYAQRVDILVKLKSYIDSNSYLKNVPEPMFAFADTDSMASTTTFSEYAEPVHSMNARKKILLLHYETTSKEKEDFKWFKCNLKNVLEKERKEGKDLEVFDVKVWEKDDRGNVFQELEKHYDLFPHIVVCFNKSYIEATKPNSKSKMPQFRKSISDKLNVEFHMNGNRNLRGRCVLMSEVEKVTDTYWAAVTNQYPFPGSFEPFVKRLLRDGKVKKQSHNNANDHHEDSMNYSITQ
B2: the binding result in assay [3] is listed as “binds”.

B3: His10-tagged C. elegans ACTL-1-FLAG (recombinant) (protein, UniProt Q18008 1-360)
chain: MTKMKMDVTIELDLDGDDWEEVDVLSDKCVEDILEDVHIDDPILVSDVRITLPANIRIKNFKKEIRDLILANLDVPTTVSAGSWQIVSSFLRGIEYSEIGGRERNSKLSWKPFEDMHAQILVNALAYAQRVDILVKLKSYIDSNSYLKNVPEPMFAFADTDSMASTTTFSEYAEPVHSMNARKKILLLHYETTSKEKEDFKWFKCNLKNVLEKERKEGKDLEVFDVKVWEKDDRGNVFQELEKHYDLFPHIVVCFNKSYIEATKPNSKSKMPQFRKSISDKLNVEFHMNGNRNLRGRCVLMSEVEKVTDTYWAAVTNQYPFPGSFEPFVKRLLRDGKVKKQSHNNANDHHEDSMNYSITQ
For the molecule B3, the binding entry in assay [4] is given as “binds”.

B4: NFKI-1-V5 (endogenous NFKI-1 tagged with V5) (protein, UniProt G5EDE9 1-611)
chain: MATVAPKGNCLVARAIPSDSHADQLTDLLCKLSVNGDANQKSVNKFESQHGVTPSDFRDIQNIRSSALAKKTKTSKFQLDGVTLFADLTPNSKSKKKTENQETKEKDEEAEEKKDGPPKDDKELKMKKEKEQEDENAELDEQKKDGDLLGRGPVHNVRVATGGSHPYHRAQIPYGCAAQTPITDISAYTGYGSGYECGSTWSLSPDTTIGSISASTTPDTVLSSDGYGSASPPQHSPKESLQSPFSDISSADTSRVLTPENNELPESLQDFILQYSNQYTKEESIRGRPPSADSGVSSPMSARSAPYASPHVPQGTCSGPTTPSFNQTRLSPRTSENGITAKQRLNAIIPESDLATGFHWACTTWKNVLTNRDADGDTPLHIVAAHNDLGKIYALCETLRKTMNENDDNVFNVSNNFGETPLYVAVLQRSIEVVEYLLELGASPNSRSSRAVGDSPLHFATARGMNNMVEALLSKREIRVNETNDDGQTSLLCAVKMHGMMDEQTQHKIDNKSIIEMLIKAGADPTIAETSTGKTIVHHAVDKMDVELLDFLKTVVNEDTFTELANLSDFHGDTAVDLLCSSTQNEDTNNVRENLYIRLLTSGAVPNKSRA
As to B4, in assay [3], the binding entry is “binds”.

B5: His10-tagged C. elegans NFKI-1-V5 (recombinant) (protein, UniProt G5EDE9 1-611)
chain: MATVAPKGNCLVARAIPSDSHADQLTDLLCKLSVNGDANQKSVNKFESQHGVTPSDFRDIQNIRSSALAKKTKTSKFQLDGVTLFADLTPNSKSKKKTENQETKEKDEEAEEKKDGPPKDDKELKMKKEKEQEDENAELDEQKKDGDLLGRGPVHNVRVATGGSHPYHRAQIPYGCAAQTPITDISAYTGYGSGYECGSTWSLSPDTTIGSISASTTPDTVLSSDGYGSASPPQHSPKESLQSPFSDISSADTSRVLTPENNELPESLQDFILQYSNQYTKEESIRGRPPSADSGVSSPMSARSAPYASPHVPQGTCSGPTTPSFNQTRLSPRTSENGITAKQRLNAIIPESDLATGFHWACTTWKNVLTNRDADGDTPLHIVAAHNDLGKIYALCETLRKTMNENDDNVFNVSNNFGETPLYVAVLQRSIEVVEYLLELGASPNSRSSRAVGDSPLHFATARGMNNMVEALLSKREIRVNETNDDGQTSLLCAVKMHGMMDEQTQHKIDNKSIIEMLIKAGADPTIAETSTGKTIVHHAVDKMDVELLDFLKTVVNEDTFTELANLSDFHGDTAVDLLCSSTQNEDTNNVRENLYIRLLTSGAVPNKSRA
Regarding B5, the binding entry in assay [4] is listed as “binds”.

The values are drawn from PMC7190641.
